Results are given in words; binding and its absence hold for the method and conditions named. In cells and extracts the contact can be indirect. For some of these results: Binding calls can cover weak binding; strength is not graded here. For some of these results: Sequences can lack the tags named with a protein. Blank lines part the entries; values can stand above or below the molecule they belong to.
Tests used:
[1] = biological target: P34-GFP (Arabidopsis thaliana) (UniProt F4JXN0); assay: co-IP
[2] = biological target: BAG4-GFP (Arabidopsis thaliana) (UniProt Q8RX71); assay: co-IP
[3] = biological target: T1, AP5M (partner of AP5B-RFP in the tobacco Co-IP) (Arabidopsis thaliana) (UniProt Q8W0Z6); assay: co-IP
T1 sequence: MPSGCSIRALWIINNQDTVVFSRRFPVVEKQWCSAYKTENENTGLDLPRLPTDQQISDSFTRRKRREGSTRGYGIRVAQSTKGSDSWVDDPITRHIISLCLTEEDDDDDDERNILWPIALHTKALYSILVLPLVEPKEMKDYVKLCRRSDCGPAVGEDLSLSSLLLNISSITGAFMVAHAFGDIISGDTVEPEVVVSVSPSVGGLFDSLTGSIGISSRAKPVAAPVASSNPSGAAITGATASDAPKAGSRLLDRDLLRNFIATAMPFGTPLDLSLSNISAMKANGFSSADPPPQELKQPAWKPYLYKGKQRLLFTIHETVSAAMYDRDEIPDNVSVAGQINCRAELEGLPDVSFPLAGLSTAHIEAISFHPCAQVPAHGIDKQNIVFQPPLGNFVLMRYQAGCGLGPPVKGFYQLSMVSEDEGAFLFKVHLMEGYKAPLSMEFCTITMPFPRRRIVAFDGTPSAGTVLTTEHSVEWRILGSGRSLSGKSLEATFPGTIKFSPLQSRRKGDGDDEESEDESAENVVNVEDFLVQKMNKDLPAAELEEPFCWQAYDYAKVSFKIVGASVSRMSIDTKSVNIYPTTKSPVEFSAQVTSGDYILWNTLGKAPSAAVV

Amino acid sequences for entries named in this document (tags omitted). A change or cut given only in a name is not applied to a line headed by its entry.
UniProt Q8RX71: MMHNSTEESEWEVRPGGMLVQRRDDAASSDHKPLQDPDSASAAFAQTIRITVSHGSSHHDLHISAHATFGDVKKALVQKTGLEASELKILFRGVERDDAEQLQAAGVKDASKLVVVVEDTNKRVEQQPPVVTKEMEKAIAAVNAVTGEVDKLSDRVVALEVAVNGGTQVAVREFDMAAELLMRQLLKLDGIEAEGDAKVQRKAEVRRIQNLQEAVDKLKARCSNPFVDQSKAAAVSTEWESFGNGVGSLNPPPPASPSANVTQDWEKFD
UniProt Q84WL9: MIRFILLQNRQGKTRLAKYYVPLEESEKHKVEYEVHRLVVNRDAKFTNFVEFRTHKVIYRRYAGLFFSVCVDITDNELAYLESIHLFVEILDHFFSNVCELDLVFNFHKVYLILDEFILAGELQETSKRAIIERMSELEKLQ
UniProt Q42374: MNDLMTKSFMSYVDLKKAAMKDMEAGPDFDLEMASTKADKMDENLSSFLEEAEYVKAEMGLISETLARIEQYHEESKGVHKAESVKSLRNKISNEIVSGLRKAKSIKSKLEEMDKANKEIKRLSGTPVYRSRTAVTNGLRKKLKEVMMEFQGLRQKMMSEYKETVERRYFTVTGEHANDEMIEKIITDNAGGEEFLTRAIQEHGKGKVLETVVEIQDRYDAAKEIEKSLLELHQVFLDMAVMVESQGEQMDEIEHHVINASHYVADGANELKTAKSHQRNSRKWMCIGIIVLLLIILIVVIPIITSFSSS
UniProt F4J8D3: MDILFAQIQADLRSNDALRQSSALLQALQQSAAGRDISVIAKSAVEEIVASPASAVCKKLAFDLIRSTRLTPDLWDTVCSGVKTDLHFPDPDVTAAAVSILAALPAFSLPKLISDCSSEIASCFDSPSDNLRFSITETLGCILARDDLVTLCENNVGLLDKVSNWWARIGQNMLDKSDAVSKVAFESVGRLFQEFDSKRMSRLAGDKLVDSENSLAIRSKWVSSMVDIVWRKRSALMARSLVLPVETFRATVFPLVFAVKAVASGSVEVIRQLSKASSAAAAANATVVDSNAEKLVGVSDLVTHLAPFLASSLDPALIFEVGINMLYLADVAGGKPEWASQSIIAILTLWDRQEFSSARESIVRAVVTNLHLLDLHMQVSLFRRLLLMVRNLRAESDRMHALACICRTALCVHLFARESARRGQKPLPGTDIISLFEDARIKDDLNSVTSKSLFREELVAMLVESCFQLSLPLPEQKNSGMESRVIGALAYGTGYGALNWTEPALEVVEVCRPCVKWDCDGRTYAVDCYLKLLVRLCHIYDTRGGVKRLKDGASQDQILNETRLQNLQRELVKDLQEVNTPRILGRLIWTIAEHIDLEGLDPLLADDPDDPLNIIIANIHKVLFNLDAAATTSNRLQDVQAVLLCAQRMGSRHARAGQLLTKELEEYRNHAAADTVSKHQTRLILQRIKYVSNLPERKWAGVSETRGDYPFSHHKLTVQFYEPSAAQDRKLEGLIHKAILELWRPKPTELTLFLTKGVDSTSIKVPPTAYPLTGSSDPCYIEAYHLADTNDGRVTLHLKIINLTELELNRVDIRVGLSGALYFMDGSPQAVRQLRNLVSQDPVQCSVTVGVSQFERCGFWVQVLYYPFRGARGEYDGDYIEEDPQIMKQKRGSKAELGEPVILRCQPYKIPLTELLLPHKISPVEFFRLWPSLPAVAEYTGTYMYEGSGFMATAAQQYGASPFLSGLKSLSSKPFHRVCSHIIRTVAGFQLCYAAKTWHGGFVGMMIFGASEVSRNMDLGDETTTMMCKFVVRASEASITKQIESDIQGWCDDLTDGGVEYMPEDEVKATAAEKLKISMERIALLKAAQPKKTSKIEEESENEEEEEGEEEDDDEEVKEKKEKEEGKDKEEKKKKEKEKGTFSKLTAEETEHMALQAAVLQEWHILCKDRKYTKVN

[4] = biological target: T2, AP5M-cYFP (Arabidopsis thaliana) (UniProt Q8W0Z6); assay: split reporter
T2 sequence: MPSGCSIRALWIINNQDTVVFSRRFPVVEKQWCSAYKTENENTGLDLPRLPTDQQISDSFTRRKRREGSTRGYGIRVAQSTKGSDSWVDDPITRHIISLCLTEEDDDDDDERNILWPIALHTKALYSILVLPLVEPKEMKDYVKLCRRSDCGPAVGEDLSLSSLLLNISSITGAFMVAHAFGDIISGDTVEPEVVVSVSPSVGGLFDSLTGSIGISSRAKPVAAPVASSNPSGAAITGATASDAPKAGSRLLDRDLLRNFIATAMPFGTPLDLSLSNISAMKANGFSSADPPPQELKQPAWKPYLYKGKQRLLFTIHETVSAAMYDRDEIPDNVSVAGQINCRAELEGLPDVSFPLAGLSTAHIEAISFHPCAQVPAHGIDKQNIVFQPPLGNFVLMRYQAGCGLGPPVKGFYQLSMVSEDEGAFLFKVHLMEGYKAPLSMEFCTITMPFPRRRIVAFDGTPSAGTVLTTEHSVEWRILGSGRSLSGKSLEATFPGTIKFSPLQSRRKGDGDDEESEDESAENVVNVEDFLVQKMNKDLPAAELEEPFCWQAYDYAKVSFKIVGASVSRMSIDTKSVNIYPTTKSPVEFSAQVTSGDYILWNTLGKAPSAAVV

[5] = biological target: P34 (rBiFC fusion) (Arabidopsis thaliana) (UniProt F4JXN0); assay: split reporter
[6] = biological target: T3, nYFP-AP2M (Arabidopsis thaliana) (UniProt O23140); assay: split reporter
T3 sequence: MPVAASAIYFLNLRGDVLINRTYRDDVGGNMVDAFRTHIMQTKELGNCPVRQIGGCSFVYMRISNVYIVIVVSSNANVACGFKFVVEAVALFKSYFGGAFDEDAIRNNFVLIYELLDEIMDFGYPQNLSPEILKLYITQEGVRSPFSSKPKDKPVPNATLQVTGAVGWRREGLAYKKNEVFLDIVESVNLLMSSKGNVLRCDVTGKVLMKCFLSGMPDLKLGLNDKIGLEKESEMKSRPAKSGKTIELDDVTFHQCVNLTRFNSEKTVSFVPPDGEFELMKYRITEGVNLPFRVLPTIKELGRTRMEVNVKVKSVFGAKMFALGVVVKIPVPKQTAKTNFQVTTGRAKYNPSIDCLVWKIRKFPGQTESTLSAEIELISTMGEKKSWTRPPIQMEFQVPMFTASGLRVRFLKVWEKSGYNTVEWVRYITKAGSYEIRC

[7] = biological target: T4, AP3B-GFP (Arabidopsis thaliana) (UniProt Q9M2T1); assay: co-IP
T4 sequence: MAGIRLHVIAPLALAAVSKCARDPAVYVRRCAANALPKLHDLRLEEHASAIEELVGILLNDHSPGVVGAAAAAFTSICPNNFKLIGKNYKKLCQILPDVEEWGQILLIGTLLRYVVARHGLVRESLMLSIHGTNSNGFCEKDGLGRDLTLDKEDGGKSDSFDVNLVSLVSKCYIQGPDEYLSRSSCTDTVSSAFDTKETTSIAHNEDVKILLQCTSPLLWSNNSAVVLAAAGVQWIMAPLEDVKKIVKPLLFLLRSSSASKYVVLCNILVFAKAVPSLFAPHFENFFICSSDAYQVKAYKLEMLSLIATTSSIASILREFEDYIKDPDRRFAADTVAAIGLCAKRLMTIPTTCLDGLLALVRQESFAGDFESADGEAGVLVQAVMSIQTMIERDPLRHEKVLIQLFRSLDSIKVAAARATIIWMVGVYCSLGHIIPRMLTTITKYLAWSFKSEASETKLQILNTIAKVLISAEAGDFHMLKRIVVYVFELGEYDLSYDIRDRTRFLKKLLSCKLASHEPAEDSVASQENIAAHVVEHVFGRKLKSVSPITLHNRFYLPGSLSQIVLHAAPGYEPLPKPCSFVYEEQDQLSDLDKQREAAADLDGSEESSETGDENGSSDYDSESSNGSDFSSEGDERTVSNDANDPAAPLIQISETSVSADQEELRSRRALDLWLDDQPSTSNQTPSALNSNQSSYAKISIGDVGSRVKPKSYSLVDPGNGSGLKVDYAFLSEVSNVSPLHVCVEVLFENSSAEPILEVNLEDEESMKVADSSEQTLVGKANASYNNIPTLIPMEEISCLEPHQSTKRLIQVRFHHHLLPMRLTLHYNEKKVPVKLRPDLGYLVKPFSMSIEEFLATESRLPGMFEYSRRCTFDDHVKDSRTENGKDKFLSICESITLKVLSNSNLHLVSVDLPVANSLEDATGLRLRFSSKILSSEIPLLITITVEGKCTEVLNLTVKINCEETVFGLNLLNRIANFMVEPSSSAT

[8] = biological target: AAK1-cYFP (Arabidopsis thaliana); assay: split reporter
[9] = biological target: AP5B (partner of AP5M-RFP in the tobacco Co-IP) (Arabidopsis thaliana); assay: co-IP
[10] = biological target: SPG11 (tobacco Co-IP) (Arabidopsis thaliana); assay: co-IP
[11] = biological target: SPG15 (tobacco Co-IP) (Arabidopsis thaliana); assay: co-IP
[12] = biological target: AP5B-cYFP (Arabidopsis thaliana); assay: split reporter

binding [1]: binds
binding [2]: binds
Molecule: AP2S (AP-2 subunit detected with α-AP2S) (from UniProt Q84WL9)

binding [3]: binds
Molecule: AP5B-RFP (Arabidopsis thaliana)

binding [4]: binds
Molecule: AP5Z-nYFP (Arabidopsis thaliana)

binding [5]: binds
Molecule: BAG4 (rBiFC fusion) (from UniProt Q8RX71 1-269)

binding [6]: binds
Molecule: KNOLLE (rBiFC fusion) (from UniProt Q42374)

binding [7]: no binding
Molecule: P34-mCherry (Arabidopsis thaliana)

binding [1]: no binding
Molecule: TPLATE (TPC subunit detected with α-TPLATE) (from UniProt F4J8D3 1-1176)

binding [8]: binds
B1: nYFP-AP2M (protein, UniProt O23140 1-438)
chain: MPVAASAIYFLNLRGDVLINRTYRDDVGGNMVDAFRTHIMQTKELGNCPVRQIGGCSFVYMRISNVYIVIVVSSNANVACGFKFVVEAVALFKSYFGGAFDEDAIRNNFVLIYELLDEIMDFGYPQNLSPEILKLYITQEGVRSPFSSKPKDKPVPNATLQVTGAVGWRREGLAYKKNEVFLDIVESVNLLMSSKGNVLRCDVTGKVLMKCFLSGMPDLKLGLNDKIGLEKESEMKSRPAKSGKTIELDDVTFHQCVNLTRFNSEKTVSFVPPDGEFELMKYRITEGVNLPFRVLPTIKELGRTRMEVNVKVKSVFGAKMFALGVVVKIPVPKQTAKTNFQVTTGRAKYNPSIDCLVWKIRKFPGQTESTLSAEIELISTMGEKKSWTRPPIQMEFQVPMFTASGLRVRFLKVWEKSGYNTVEWVRYITKAGSYEIRC

binding [9]: binds
binding [10]: binds
binding [11]: binds
B2: AP5M-RFP (protein, UniProt Q8W0Z6 1-613)
chain: MPSGCSIRALWIINNQDTVVFSRRFPVVEKQWCSAYKTENENTGLDLPRLPTDQQISDSFTRRKRREGSTRGYGIRVAQSTKGSDSWVDDPITRHIISLCLTEEDDDDDDERNILWPIALHTKALYSILVLPLVEPKEMKDYVKLCRRSDCGPAVGEDLSLSSLLLNISSITGAFMVAHAFGDIISGDTVEPEVVVSVSPSVGGLFDSLTGSIGISSRAKPVAAPVASSNPSGAAITGATASDAPKAGSRLLDRDLLRNFIATAMPFGTPLDLSLSNISAMKANGFSSADPPPQELKQPAWKPYLYKGKQRLLFTIHETVSAAMYDRDEIPDNVSVAGQINCRAELEGLPDVSFPLAGLSTAHIEAISFHPCAQVPAHGIDKQNIVFQPPLGNFVLMRYQAGCGLGPPVKGFYQLSMVSEDEGAFLFKVHLMEGYKAPLSMEFCTITMPFPRRRIVAFDGTPSAGTVLTTEHSVEWRILGSGRSLSGKSLEATFPGTIKFSPLQSRRKGDGDDEESEDESAENVVNVEDFLVQKMNKDLPAAELEEPFCWQAYDYAKVSFKIVGASVSRMSIDTKSVNIYPTTKSPVEFSAQVTSGDYILWNTLGKAPSAAVV

binding [12]: binds
B3: AP5M-nYFP (protein, UniProt Q8W0Z6 1-613)
chain: MPSGCSIRALWIINNQDTVVFSRRFPVVEKQWCSAYKTENENTGLDLPRLPTDQQISDSFTRRKRREGSTRGYGIRVAQSTKGSDSWVDDPITRHIISLCLTEEDDDDDDERNILWPIALHTKALYSILVLPLVEPKEMKDYVKLCRRSDCGPAVGEDLSLSSLLLNISSITGAFMVAHAFGDIISGDTVEPEVVVSVSPSVGGLFDSLTGSIGISSRAKPVAAPVASSNPSGAAITGATASDAPKAGSRLLDRDLLRNFIATAMPFGTPLDLSLSNISAMKANGFSSADPPPQELKQPAWKPYLYKGKQRLLFTIHETVSAAMYDRDEIPDNVSVAGQINCRAELEGLPDVSFPLAGLSTAHIEAISFHPCAQVPAHGIDKQNIVFQPPLGNFVLMRYQAGCGLGPPVKGFYQLSMVSEDEGAFLFKVHLMEGYKAPLSMEFCTITMPFPRRRIVAFDGTPSAGTVLTTEHSVEWRILGSGRSLSGKSLEATFPGTIKFSPLQSRRKGDGDDEESEDESAENVVNVEDFLVQKMNKDLPAAELEEPFCWQAYDYAKVSFKIVGASVSRMSIDTKSVNIYPTTKSPVEFSAQVTSGDYILWNTLGKAPSAAVV

— publication doi:10.1101/2022.08.31.505729
